Data reported in patent US12439951B2, “Aerosolizable material with cannabinoid and carrier constituent” (Nicoventures Trading Limited, priority 2019, dated 2025).

Experiment: Solubility of cannabidiol in glycerol/propylene glycol/water solutions
Type: physicochemical
Settings: Isolate 10 mg/mL, Glycerol 36 w/w
Source text: Thus, by controlling the amount of water present in the system, there was no need for the inclusion of a surface active constituent in order to ensure stability of the aerosolizable material.

With `C=C(C)[C@@H]1CCC(C)=C[C@H]1c1c(O)cc(CCCCC)cc1O` [Isolate, cannabidiol] the Soluble (PG 52.09 w/w, Water 11 w/w) was “YES” and the Soluble (PG 53.09 w/w, Water 10 w/w) was “YES”.
